This passage reports binding results from article PMC9008429, “Identification of a New Cholesterol‐Binding Site within the IFN‐γ Receptor that is Required for Signal Transduction” (Advanced Science, 2022).

No constants are given. Whether binding was seen depends on the method and setting. Binding seen in cells or lysates may run through a third protein. A yes stands for co-enrichment or nearness to the bait. Other partners may have been found. Sequences can lack the tags named with a protein.

The target in this test is T1, Flag‐LpIA‐IFN‐γR1WT (human) (UniProt P15260).
T1 sequence: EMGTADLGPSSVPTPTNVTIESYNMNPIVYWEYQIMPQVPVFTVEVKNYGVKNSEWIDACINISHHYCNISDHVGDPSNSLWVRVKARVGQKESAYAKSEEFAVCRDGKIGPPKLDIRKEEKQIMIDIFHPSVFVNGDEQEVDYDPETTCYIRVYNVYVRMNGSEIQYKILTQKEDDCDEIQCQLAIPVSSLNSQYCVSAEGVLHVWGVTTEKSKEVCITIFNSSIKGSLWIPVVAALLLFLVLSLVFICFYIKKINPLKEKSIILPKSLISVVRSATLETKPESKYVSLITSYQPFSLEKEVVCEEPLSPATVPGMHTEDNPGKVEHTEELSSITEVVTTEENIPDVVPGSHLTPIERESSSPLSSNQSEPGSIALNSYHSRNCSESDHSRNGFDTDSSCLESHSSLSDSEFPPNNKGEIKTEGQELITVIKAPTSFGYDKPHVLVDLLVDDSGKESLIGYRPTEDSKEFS
As to the kind of experiment: proximity labelling; ID-PRIME on the surface of living HEK cells co-transfected with the bait Flag-LplA-IFN-γR1 and the prey HA-LAP2-IFN-γR2 (wild type or mutant); pAz + ATP, 37 °C, then DBCO-Cy3 click chemistry, pAz signal normalised on anti-HA signal; cells untreated or stimulated with IFN-γ (1000 U/mL, 5 min); also cells treated with zaragozic acid (15 µM, 24 h).

B1: HA‐LAP2‐IFN‐γR2WT (receptor, UniProt P38484 22-337)
chain: APPDPLSQLPAPQHPKIRLYNAEQVLSWEPVALSNSTRPVVYQVQFKYTDSKWFTADIMSIGVNCTQITATECDFTAASPSAGFPMDFNVTLRLRAELGALHSAWVTMPWFQHYRNVTVGPPENIEVTPGEGSLIIRFSSPFDIADTSTAFFCYYVHYWEKGGIQQVKGPFRSNSISLDNLKPSRVYCLQVQAQLLWNKSNIFRVGHLSNISCYETMADASTELQQVILISVGTFSLLSVLAGACFFLVLKYRGLIKYWFHTPPSIPLQIEEYLKDPTQPILEALDKDSSPKDDVWDSVSIISFPEKEQEDVLQTL
In the case of B1, the binding entry is listed as “binds”.
